Reference: article doi:10.1101/2023.10.23.563594 (bioRxiv, 2023)
These are yes or no findings as the source states them, for the method shown. Binding seen in cells or lysates may run through a third protein.

T1: RYBP Q60H, co-expressed with RING1B and PCGF4 (human) (UniProt Q8N488)
T1 sequence: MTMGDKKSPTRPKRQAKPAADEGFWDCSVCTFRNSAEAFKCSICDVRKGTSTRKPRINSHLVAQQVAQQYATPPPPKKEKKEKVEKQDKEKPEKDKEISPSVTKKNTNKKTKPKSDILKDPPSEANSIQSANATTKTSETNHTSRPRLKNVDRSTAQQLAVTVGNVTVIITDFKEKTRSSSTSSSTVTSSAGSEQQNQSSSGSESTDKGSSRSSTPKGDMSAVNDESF

B1: E3 ubiquitin ligase subunit RING1B, full-length, co-expressed in the vPRC1.4 complex (natural protein)
chain: MSQAVQTNGTQPLSKTWELSLYELQRTPQEAITDGLEIVVSPRSLHSELMCPICLDMLKNTMTTKECLHRFCADCIITALRSGNKECPTCRKKLVSKRSLRPDPNFDALISKIYPSRDEYEAHQERVLARINKHNNQQALSHSIEEGLKIQAMNRLQRGKKQQIENGSGAEDNGDSSHCSNASTHSNQEAGPSNKRTKTSDDSGLELDNNNAAMAIDPVMDGASEIELVFRPHPTLMEKDDSAQTRYIKTSGNATVDHLSKYLAVRLALEELRSKGESNQMNLDTASEKQYTIYIATASGQFTVLNGSFSLELVSEKYWKVNKPMELYYAPTKEHK
B2: Polycomb group ring-finger subunit PCGF4, full-length, co-expressed in the vPRC1.4 complex (natural protein)
chain: MHRTTRIKITELNPHLMCVLCGGYFIDATTIIECLHSFCKTCIVRYLETSKYCPICDVQVHKTRPLLNIRSDKTLQDIVYKLVPGLFKNEMKRRRDFYAAHPSADAANGSNEDRGEVADEDKRIITDDEIISLSIEFFDQNRLDRKVNKDKEKSKEEVNDKRYLRCPAAMTVMHLRKFLRSKMDIPNTFQIDVMYEEEPLKDYYTLMDIAYIYTWRRNGPLPLKYRVRPTCKRMKISHQRDGLTNAGELESDSGSDKANSPAGGIPSTSSCLPSPSTPVQSPHPQFPHISSTMNGTSNSPSGNHQSSFANRPRKSSVNGSSATSSG

Target: T1, RYBP Q60H, co-expressed with RING1B and PCGF4 (human)
Experiment: pull-down

Binder	binding
B1	no binding
B2	no binding
